From paper PMC3107201
These are yes or no findings as the source states them, for the method shown. Binding seen in cells or lysates may run through a third protein. Some entries that bind do so weakly or less than the wild type. Each block holds one molecule with its values, some of them ahead of it.

The chains behind the UniProt entries cited, without tags or fusion partners.
UniProt Q9UM07: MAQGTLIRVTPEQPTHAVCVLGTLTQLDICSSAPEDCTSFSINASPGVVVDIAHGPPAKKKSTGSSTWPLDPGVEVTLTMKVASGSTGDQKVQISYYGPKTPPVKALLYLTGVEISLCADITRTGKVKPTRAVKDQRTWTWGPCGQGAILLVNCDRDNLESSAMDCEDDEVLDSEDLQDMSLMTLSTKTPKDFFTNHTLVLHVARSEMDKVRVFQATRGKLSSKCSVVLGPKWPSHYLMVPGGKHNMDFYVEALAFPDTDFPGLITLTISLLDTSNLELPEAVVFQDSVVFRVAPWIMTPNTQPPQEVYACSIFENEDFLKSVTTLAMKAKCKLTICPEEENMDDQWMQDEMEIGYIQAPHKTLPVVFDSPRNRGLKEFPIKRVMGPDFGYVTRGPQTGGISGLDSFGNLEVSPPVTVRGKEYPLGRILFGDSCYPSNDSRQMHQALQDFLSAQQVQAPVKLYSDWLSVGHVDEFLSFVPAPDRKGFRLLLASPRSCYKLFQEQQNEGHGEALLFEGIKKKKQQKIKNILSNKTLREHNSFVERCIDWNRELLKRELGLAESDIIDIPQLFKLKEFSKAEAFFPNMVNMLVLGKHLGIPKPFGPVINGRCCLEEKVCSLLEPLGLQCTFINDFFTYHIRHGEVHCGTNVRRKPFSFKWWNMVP

What was measured:
[1] = target: T1, Elk-1 (Ets-like protein-1), endogenous in HEK293 cells (human (endogenous in HEK293)) (UniProt P19419); assay: co-IP; reciprocal: whole cell lysates of HEK293 cells transfected with Flag-PADI4; endogenous Elk-1 precipitated with anti-Elk-1 antibody, normal rabbit IgG as control; western blot with anti-PADI4
T1 sequence: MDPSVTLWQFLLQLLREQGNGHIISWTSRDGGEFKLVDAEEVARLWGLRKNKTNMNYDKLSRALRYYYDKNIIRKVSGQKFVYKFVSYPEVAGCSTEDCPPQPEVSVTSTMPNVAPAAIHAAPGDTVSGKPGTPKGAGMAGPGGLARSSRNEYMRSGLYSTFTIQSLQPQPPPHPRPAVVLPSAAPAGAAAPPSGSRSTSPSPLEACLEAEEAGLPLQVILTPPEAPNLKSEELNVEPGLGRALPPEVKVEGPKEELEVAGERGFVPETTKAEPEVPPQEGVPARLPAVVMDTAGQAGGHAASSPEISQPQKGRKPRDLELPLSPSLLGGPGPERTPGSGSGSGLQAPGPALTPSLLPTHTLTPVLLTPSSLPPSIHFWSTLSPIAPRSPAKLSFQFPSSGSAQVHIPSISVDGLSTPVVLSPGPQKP

[2] = target: Flag-tagged PADI4 (peptidylarginine deiminase IV) (human) (UniProt Q9UM07); assay: co-IP; whole cell lysates of HEK293 cells transfected with Flag-PADI4 or control vector; precipitated with anti-Flag M2 affinity gel; western blot with anti-Elk-1, anti-phospho-Elk-1 and anti-PADI4

binding [1]: binds
Molecule: Flag-tagged PADI4 (peptidylarginine deiminase IV) (from UniProt Q9UM07 1-663) (enzyme)

binding [2]: binds
B1: Elk-1 (Ets-like protein-1), endogenous in HEK293 cells (protein, UniProt P19419-1 1-428)
chain: T1 sequence
